{"source": "the supplement of paper PMC8728848", "experiment_in_all_cases": "glycan array binding signal (z-score within array); higher = stronger binding", "conditions_in_all_cases": "glycan notation: IUPAC condensed, linker removed", "key": {"[1]": {"molecular_target": "Neu5Ac(a2-3)Gal(b1-3)GalNAc", "outline": "(§1)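 Glycan array data were curated from 3228 arrays in the Consortium for Functional Glycomics database and kept only where the protein sequence was available. Glycan names were converted to IUPAC-condensed notation, and columns mapping to the same glycan were averaged. The binding signal is a within-array Z-score, averaged across arrays of the same protein sequence at different concentrations or buffers and across linkers. Negative Z-scores can be read as non-binding.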"}, "[2]": {"molecular_target": "Neu5Ac(a2-3)Gal(b1-3)GalNAc(b1-3)Gal(a1-4)Gal(b1-4)Glc", "outline": "as §1"}, "[3]": {"molecular_target": "Neu5Ac(a2-3)Gal(b1-3)GalNAc(b1-4)[Neu5Ac(a2-3)]Gal(b1-4)Glc", "outline": "as §1"}, "[4]": {"molecular_target": "Neu5Ac(a2-3)Gal(b1-3)GalNAc(b1-4)[Neu5Ac(a2-8)Neu5Ac(a2-3)]Gal(b1-4)Glc", "outline": "as §1"}, "[5]": {"molecular_target": "Neu5Ac(a2-3)Gal(b1-3)GalNAc6S", "outline": "as §1"}, "[6]": {"molecular_target": "Neu5Ac(a2-3)Gal(b1-3)GlcNAc", "outline": "as §1"}, "[7]": {"molecular_target": "Neu5Ac(a2-3)Gal(b1-3)GlcNAc(b1-2)Man", "outline": "as §1"}, "[8]": {"molecular_target": "Neu5Ac(a2-3)Gal(b1-3)GlcNAc(b1-2)Man(a1-3)[GlcNAc(b1-4)][Neu5Ac(a2-3)Gal(b1-3)GlcNAc(b1-2)Man(a1-6)]Man(b1-4)GlcNAc(b1-4)GlcNAc", "outline": "as §1"}, "[9]": {"molecular_target": "Neu5Ac(a2-3)Gal(b1-3)GlcNAc(b1-2)Man(a1-3)[Neu5Ac(a2-3)Gal(b1-3)GlcNAc(b1-2)Man(a1-6)]Man(b1-4)GlcNAc(b1-4)GlcNAc", "outline": "as §1"}, "[10]": {"molecular_target": "Neu5Ac(a2-3)Gal(b1-3)GlcNAc(b1-2)[Neu5Ac(a2-3)Gal(b1-3)GlcNAc(b1-4)]Man(a1-6)[Neu5Ac(a2-3)Gal(b1-3)GlcNAc(b1-2)Man(a1-3)]Man(b1-4)GlcNAc(b1-4)GlcNAc", "outline": "as §1"}, "[11]": {"molecular_target": "Neu5Ac(a2-3)Gal(b1-3)GlcNAc(b1-3)Gal(b1-3)GlcNAc", "outline": "as §1"}, "[12]": {"molecular_target": "Neu5Ac(a2-3)Gal(b1-3)GlcNAc(b1-3)Gal(b1-4)GlcNAc", "outline": "as §1"}, "[13]": {"molecular_target": "Neu5Ac(a2-3)Gal(b1-3)GlcNAc(b1-3)GalNAc", "outline": "as §1"}, "[14]": {"molecular_target": "Neu5Ac(a2-3)Gal(b1-3)GlcNAc(b1-4)Gal(b1-4)Glc", "outline": "as §1"}, "[15]": {"molecular_target": "Neu5Ac(a2-3)Gal(b1-3)GlcNAc(b1-6)GalNAc", "outline": "as §1"}, "[16]": {"molecular_target": "Neu5Ac(a2-3)Gal(b1-3)GlcNAc6S", "outline": "as §1"}, "[17]": {"molecular_target": "Neu5Ac(a2-3)Gal(b1-3)[Fuc(a1-4)]GlcNAc", "outline": "as §1"}, "[18]": {"molecular_target": "Neu5Ac(a2-3)Gal(b1-3)[Fuc(a1-4)]GlcNAc(b1-3)Gal(b1-3)[Fuc(a1-4)]GlcNAc", "outline": "as §1"}, "[19]": {"molecular_target": "Neu5Ac(a2-3)Gal(b1-3)[Fuc(a1-4)]GlcNAc(b1-3)Gal(b1-4)[Fuc(a1-3)]GlcNAc", "outline": "as §1"}, "[20]": {"molecular_target": "Neu5Ac(a2-3)Gal(b1-3)[GlcNAc(b1-6)]GalNAc", "outline": "as §1"}, "[21]": {"molecular_target": "Neu5Ac(a2-3)Gal(b1-3)[Neu5Ac(a2-6)]GalNAc", "outline": "as §1"}, "[22]": {"molecular_target": "Neu5Ac(a2-3)Gal(b1-3)[Neu5Ac(a2-6)]GlcNAc(b1-3)[Fuc(a1-3)[Gal(b1-4)]GlcNAc(b1-6)]Gal(b1-4)Glc", "outline": "as §1"}, "[23]": {"molecular_target": "Neu5Ac(a2-3)Gal(b1-3)]Neu5Ac(a2-3)Gal(b1-4)]GlcNAc", "outline": "as §1"}, "Neu5Ac(a2-3)Gal(b1-4)Glc": {"molecular_target": "Neu5Ac(a2-3)Gal(b1-4)Glc", "outline": "as §1"}, "[24]": {"molecular_target": "Neu5Ac(a2-3)Gal(b1-4)GlcNAc", "outline": "as §1"}, "[25]": {"molecular_target": "Neu5Ac(a2-3)Gal(b1-4)GlcNAc(b1-2)Man", "outline": "as §1"}, "[26]": {"molecular_target": "Neu5Ac(a2-3)Gal(b1-4)GlcNAc(b1-2)Man(a1-3)[GlcNAc(b1-4)][Neu5Ac(a2-3)Gal(b1-4)GlcNAc(b1-2)Man(a1-6)]Man(b1-4)GlcNAc(b1-4)GlcNAc", "outline": "as §1"}, "[27]": {"molecular_target": "Neu5Ac(a2-3)Gal(b1-4)GlcNAc(b1-2)Man(a1-3)[Neu5Ac(a2-3)Gal(b1-4)GlcNAc(b1-2)Man(a1-6)]Man(b1-4)GlcNAc(b1-4)GlcNAc", "outline": "as §1"}, "[28]": {"molecular_target": "Neu5Ac(a2-3)Gal(b1-4)GlcNAc(b1-2)Man(a1-3)[Neu5Ac(a2-3)Gal(b1-4)GlcNAc(b1-2)Man(a1-6)]Man(b1-4)GlcNAc(b1-4)[Fuc(a1-6)]GlcNAc", "outline": "as §1"}, "[29]": {"molecular_target": "Neu5Ac(a2-3)Gal(b1-4)GlcNAc(b1-2)Man(a1-3)[Neu5Ac(a2-6)Gal(b1-4)GlcNAc(b1-2)Man(a1-6)]Man(b1-4)GlcNAc(b1-4)GlcNAc", "outline": "as §1"}, "[30]": {"molecular_target": "Neu5Ac(a2-3)Gal(b1-4)GlcNAc(b1-2)[Neu5Ac(a2-3)Gal(b1-4)GlcNAc(b1-4)]Man(a1-3)[GlcNAc(b1-4)][Neu5Ac(a2-3)Gal(b1-4)GlcNAc(b1-2)[Neu5Ac(a2-3)Gal(b1-4)GlcNAc(b1-6)]Man(a1-6)]Man(b1-4)GlcNAc(b1-4)GlcNAc", "outline": "as §1"}, "[31]": {"molecular_target": "Neu5Ac(a2-3)Gal(b1-4)GlcNAc(b1-2)[Neu5Ac(a2-3)Gal(b1-4)GlcNAc(b1-4)]Man(a1-3)[GlcNAc(b1-4)][Neu5Ac(a2-3)Gal(b1-4)GlcNAc(b1-4)Man(a1-6)]Man(b1-4)GlcNAc(b1-4)GlcNAc", "outline": "as §1"}, "[32]": {"molecular_target": "Neu5Ac(a2-3)Gal(b1-4)GlcNAc(b1-2)[Neu5Ac(a2-3)Gal(b1-4)GlcNAc(b1-6)]Man(a1-6)[Neu5Ac(a2-3)Gal(b1-4)GlcNAc(b1-2)Man(a1-3)][GlcNAc(b1-4)]Man(b1-4)GlcNAc(b1-4)GlcNAc", "outline": "as §1"}, "[33]": {"molecular_target": "Neu5Ac(a2-3)Gal(b1-4)GlcNAc(b1-3)Gal", "outline": "as §1"}, "[34]": {"molecular_target": "Neu5Ac(a2-3)Gal(b1-4)GlcNAc(b1-3)Gal(b1-3)GlcNAc", "outline": "as §1"}, "[35]": {"molecular_target": "Neu5Ac(a2-3)Gal(b1-4)GlcNAc(b1-3)Gal(b1-4)GlcNAc", "outline": "as §1"}, "[36]": {"molecular_target": "Neu5Ac(a2-3)Gal(b1-4)GlcNAc(b1-3)Gal(b1-4)GlcNAc(b1-2)Man(a1-3)[Neu5Ac(a2-3)Gal(b1-4)GlcNAc(b1-3)Gal(b1-4)GlcNAc(b1-2)Man(a1-6)]Man(b1-4)GlcNAc(b1-4)GlcNAc", "outline": "as §1"}}, "note": "This is one part of the list."}
{"binder": "Aap brpt (Staphylococcus epidermidis) (protein) VDGDPITSTEEIPFDKKREFDPNLAPGTEKVVQKGEPGTKTITTPTTKNPLTGEKVGEGEPTEKITKQPVDEIVHYGGEEIKTGHKDEFDPNAPKGSQTTQPGKPGVKNPDTGEVVTPPVDDVTKYGPVDGDPITSTEEIPFDKKREFDPNLAPGTEKVVQKGEPGTKTITTPTTKNPLTGEKVGEGEPTEKITKQPVDEIVHYGGEEIKPGHKDEFDPNAPKGSQEDVPGKPGVKNPDTGEVVTPPVDDVTKYGPVDGDSITSTEEIPFDKKREFDPNLAPGTEKVVQKGEPGTKTITTPTTKNPLTGEKVGEGEPTEKITKQPVDEIVHYGGEQIPQGHKDEFDPNAPVDSKTEVPGKPGVKNPDTGEVVTPPVDDVTKYGPVDGDSITSTEEIPFDKKREFDPNLAPGTEKVVQKGEPGTKTITTPTTKNPLTGEKVGEGKSTEKVTKQPVDEIVEYGPTK", "values": [{"measurement": "glycan array binding signal (z-score)", "setting": "[1]", "value": 1.35}, {"measurement": "glycan array binding signal (z-score)", "setting": "[2]", "value": -2.25}, {"measurement": "glycan array binding signal (z-score)", "setting": "[3]", "value": 1.23}, {"measurement": "glycan array binding signal (z-score)", "setting": "[4]", "value": 0.087}, {"measurement": "glycan array binding signal (z-score)", "setting": "[5]", "value": 0.067}, {"measurement": "glycan array binding signal (z-score)", "setting": "[6]", "value": 0.6}, {"measurement": "glycan array binding signal (z-score)", "setting": "[7]", "value": -0.096}, {"measurement": "glycan array binding signal (z-score)", "setting": "[8]", "value": 1.1}, {"measurement": "glycan array binding signal (z-score)", "setting": "[9]", "value": -1.44}, {"measurement": "glycan array binding signal (z-score)", "setting": "[10]", "value": -0.162}, {"measurement": "glycan array binding signal (z-score)", "setting": "[11]", "value": -1.16}, {"measurement": "glycan array binding signal (z-score)", "setting": "[12]", "value": -1.25}, {"measurement": "glycan array binding signal (z-score)", "setting": "[13]", "value": 0.672}, {"measurement": "glycan array binding signal (z-score)", "setting": "[14]", "value": -1.15}, {"measurement": "glycan array binding signal (z-score)", "setting": "[15]", "value": -0.417}, {"measurement": "glycan array binding signal (z-score)", "setting": "[16]", "value": 0.164}, {"measurement": "glycan array binding signal (z-score)", "setting": "[17]", "value": 0.572}, {"measurement": "glycan array binding signal (z-score)", "setting": "[18]", "value": -0.494}, {"measurement": "glycan array binding signal (z-score)", "setting": "[19]", "value": 0.49}, {"measurement": "glycan array binding signal (z-score)", "setting": "[20]", "value": -3.02}, {"measurement": "glycan array binding signal (z-score)", "setting": "[21]", "value": -0.794}, {"measurement": "glycan array binding signal (z-score)", "setting": "[22]", "value": -0.357}, {"measurement": "glycan array binding signal (z-score)", "setting": "[23]", "value": 1.62}, {"measurement": "glycan array binding signal (z-score)", "setting": "Neu5Ac(a2-3)Gal(b1-4)Glc", "value": 0.604}, {"measurement": "glycan array binding signal (z-score)", "setting": "[24]", "value": 0.265}, {"measurement": "glycan array binding signal (z-score)", "setting": "[25]", "value": 1.85}, {"measurement": "glycan array binding signal (z-score)", "setting": "[26]", "value": 1.41}, {"measurement": "glycan array binding signal (z-score)", "setting": "[27]", "value": -0.831}, {"measurement": "glycan array binding signal (z-score)", "setting": "[28]", "value": -0.101}, {"measurement": "glycan array binding signal (z-score)", "setting": "[29]", "value": -1.42}, {"measurement": "glycan array binding signal (z-score)", "setting": "[30]", "value": -0.621}, {"measurement": "glycan array binding signal (z-score)", "setting": "[31]", "value": -1.03}, {"measurement": "glycan array binding signal (z-score)", "setting": "[32]", "value": 0.925}, {"measurement": "glycan array binding signal (z-score)", "setting": "[33]", "value": -1.61}, {"measurement": "glycan array binding signal (z-score)", "setting": "[34]", "value": 0.188}, {"measurement": "glycan array binding signal (z-score)", "setting": "[35]", "value": -0.371}, {"measurement": "glycan array binding signal (z-score)", "setting": "[36]", "value": -0.134}]}
